Results deposited as PubChem BioAssay AID504791 (Drosophila RNAi Screening Center, 2011).

Test: 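Genes whose knock-down strengthens or weakens small-RNA reporter silencing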 (primary screen)
Cell system: Drosophila S2-derived reporter cells
Knock-down reagent: long dsRNA against Drosophila genes, about 150-250 ng dsRNA per well (siRNA assay); about 80-120 ng (miRNA assay)
Time to read-out: about 5 days (siRNA assay); about 4 days (miRNA assay)
Challenge: copper sulfate induction of reporters: 25 µM (siRNA assay); 200 mM stated (miRNA assay), 1-2 days before reading
Read-out: 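Dual luciferase assay: Renilla to firefly signal ratio in each well, scaled to the mean ratio of its plate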
Direction: siRNA reporter hit score: higher = 3 marks a strong hit with raised ratio; -3 a strong hit with lowered ratio
Units: stable assay Renilla, run 1 in luminescence; stable assay firefly, run 1 in luminescence
Hit rule: 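First-pass picks had plate-scaled ratios over 1.5 for the siRNA assay, over 1.6 for the miRNA assay, or under 0.6; two distinct dsRNAs had to score alike on retest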
The deposit covers about 23,000 reagents; below is a random part of those that have a named target and a result. Of all reagents, 199 (0.86%) are marked active. 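Plate-scaled ratios behind the calls are not deposited; printed light signals are raw; many rows marked increased or decreased are still called inactive.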

Silencing of CG12017 [DRSC08225] gave: stable assay Renilla, run 1 = 5428; stable assay firefly, run 1 = 3.85e5; inactive.
Nup93-2 [DRSC16221] gave siRNA reporter hit score 3; stable assay Renilla, run 1 = 7639; stable assay firefly, run 1 = 3.52e5; inactive.
CG12121 [DRSC17816] gave stable assay Renilla, run 1 = 5510; stable assay firefly, run 1 = 4.65e5; inactive.
For cac [DRSC19743], the entry reads stable assay Renilla, run 1 = 4835; stable assay firefly, run 1 = 4.01e5; inactive.
With knock-down of cac [DRSC20354] the results were stable assay Renilla, run 1 = 7448; stable assay firefly, run 1 = 4.04e5; inactive.
For CG9826 [DRSC04570], the values are stable assay Renilla, run 1 = 6904; stable assay firefly, run 1 = 3.80e5; inactive.
Lectin-galC1 [DRSC03362] showed stable assay Renilla, run 1 = 7443; stable assay firefly, run 1 = 3.66e5; inactive.
Against Rat1 [DRSC02044], the entry reads stable assay Renilla, run 1 = 13041; stable assay firefly, run 1 = 5.42e5; inactive.
With knock-down of BthD [DRSC19395], the record shows stable assay Renilla, run 1 = 5287; stable assay firefly, run 1 = 5.79e5; inactive.
After knock-down of CG17440 [DRSC18126] the results were stable assay Renilla, run 1 = 5015; stable assay firefly, run 1 = 3.65e5; inactive.
For CG7386 [DRSC10832], the entry reads stable assay Renilla, run 1 = 7098; stable assay firefly, run 1 = 4.32e5; inactive.
Against TotZ [DRSC13450] the deposit lists stable assay Renilla, run 1 = 3895; stable assay firefly, run 1 = 3.53e5; inactive.
GEFmeso [DRSC06748] gave stable assay Renilla, run 1 = 8760; stable assay firefly, run 1 = 2.65e5; inactive.
Depletion of GEFmeso [DRSC06940] resulted in: miRNA reporter change reporter ratio raised past the hit cutoff; stable assay Renilla, run 1 = 7307; stable assay firefly, run 1 = 3.18e5; inactive.
Against GEFmeso [DRSC21475], the values are stable assay Renilla, run 1 = 8768; stable assay firefly, run 1 = 4.95e5; inactive.
Against Prosbeta4R2 [DRSC00503], the entry reads stable assay Renilla, run 1 = 11609; stable assay firefly, run 1 = 6.36e5; inactive.
CG14857 [DRSC14981] showed stable assay Renilla, run 1 = 7243; stable assay firefly, run 1 = 3.82e5; inactive.
With knock-down of galectin [DRSC00305] the results were stable assay Renilla, run 1 = 9129; stable assay firefly, run 1 = 6.64e5; inactive.
For CG9500 [DRSC03237], the values are stable assay Renilla, run 1 = 9317; stable assay firefly, run 1 = 5.47e5; inactive.
Nadk1a [DRSC05431] gave stable assay Renilla, run 1 = 5064; stable assay firefly, run 1 = 2.78e5; inactive.
Nadk1a [DRSC06963] showed stable assay Renilla, run 1 = 7034; stable assay firefly, run 1 = 4.06e5; inactive.
For mav [DRSC17149], the entry reads stable assay Renilla, run 1 = 7255; stable assay firefly, run 1 = 4.13e5; inactive.
With knock-down of AP-2sigma [DRSC15957], the record shows stable assay Renilla, run 1 = 8749; stable assay firefly, run 1 = 3.82e5; inactive.
CG31068 [DRSC13820] gave stable assay Renilla, run 1 = 6131; stable assay firefly, run 1 = 4.47e5; inactive.
ATPsynC [DRSC15236] showed stable assay Renilla, run 1 = 6916; stable assay firefly, run 1 = 4.45e5; inactive.
schuy [DRSC10284] scored stable assay Renilla, run 1 = 7450; stable assay firefly, run 1 = 4.39e5; inactive.
Depletion of lbm [DRSC07643] came out at: stable assay Renilla, run 1 = 6318; stable assay firefly, run 1 = 3.62e5; inactive.
Depletion of CG5126 [DRSC00680] resulted in: stable assay Renilla, run 1 = 1.38e5; stable assay firefly, run 1 = 1.22e5; inactive.
